Test results as given in publication PMC7293033.
These are yes or no findings as the source states them, for the method shown. Binding calls can cover weak binding; strength is not graded here. For some assays here: Binding seen in cells or lysates may run through a third protein.

Chains of the proteins cited; added tags and fusions are not shown. Lines headed by an entry give the natural chain unless they say otherwise; changes in a name come on top. A line that says so, or that is headed by a name, gives the form on record, which may keep a tag or linker. Residues count along the entry.
HA-tagged LMW FGF2 WT (P09038, residues 135-288): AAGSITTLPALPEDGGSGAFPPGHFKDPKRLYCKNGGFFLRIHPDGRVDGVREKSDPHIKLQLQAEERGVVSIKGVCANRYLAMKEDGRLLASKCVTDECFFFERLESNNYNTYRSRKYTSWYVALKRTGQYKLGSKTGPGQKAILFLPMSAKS
His-FGF2, LMW FGF2 (residues 135-288, C211S/C229S) (P09038, form named): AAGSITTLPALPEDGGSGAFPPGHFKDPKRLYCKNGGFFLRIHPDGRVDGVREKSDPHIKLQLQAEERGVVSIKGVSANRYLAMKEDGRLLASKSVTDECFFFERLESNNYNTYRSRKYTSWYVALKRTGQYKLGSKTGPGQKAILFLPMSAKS
UniProt Q13838: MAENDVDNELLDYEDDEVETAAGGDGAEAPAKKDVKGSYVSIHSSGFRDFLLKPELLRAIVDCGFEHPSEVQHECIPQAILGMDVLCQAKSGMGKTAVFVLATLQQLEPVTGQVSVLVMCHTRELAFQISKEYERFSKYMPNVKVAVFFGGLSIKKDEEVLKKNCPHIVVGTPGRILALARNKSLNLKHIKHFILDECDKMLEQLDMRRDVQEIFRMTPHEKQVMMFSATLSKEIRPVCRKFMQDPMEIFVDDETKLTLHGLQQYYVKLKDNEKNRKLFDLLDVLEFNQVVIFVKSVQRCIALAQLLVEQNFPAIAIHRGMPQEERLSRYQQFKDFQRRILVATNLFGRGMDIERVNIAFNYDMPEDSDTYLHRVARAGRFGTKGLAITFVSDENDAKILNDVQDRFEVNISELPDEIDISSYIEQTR
UniProt P06730: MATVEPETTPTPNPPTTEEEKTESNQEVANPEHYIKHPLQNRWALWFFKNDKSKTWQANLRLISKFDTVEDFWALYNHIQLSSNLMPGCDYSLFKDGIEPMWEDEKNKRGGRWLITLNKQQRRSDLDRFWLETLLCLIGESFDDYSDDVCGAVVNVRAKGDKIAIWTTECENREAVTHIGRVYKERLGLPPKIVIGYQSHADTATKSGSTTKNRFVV

Tests used:
[1] = target: T1, API5 in cells (immunoprecipitation of Supplementary Figure S9) (human) (UniProt Q9BZZ5); experiment: co-IP; immunoprecipitation from cells with lentivirus-mediated expression of the API5-segment 2 peptide (Supplementary Figure S9)
T1 sequence: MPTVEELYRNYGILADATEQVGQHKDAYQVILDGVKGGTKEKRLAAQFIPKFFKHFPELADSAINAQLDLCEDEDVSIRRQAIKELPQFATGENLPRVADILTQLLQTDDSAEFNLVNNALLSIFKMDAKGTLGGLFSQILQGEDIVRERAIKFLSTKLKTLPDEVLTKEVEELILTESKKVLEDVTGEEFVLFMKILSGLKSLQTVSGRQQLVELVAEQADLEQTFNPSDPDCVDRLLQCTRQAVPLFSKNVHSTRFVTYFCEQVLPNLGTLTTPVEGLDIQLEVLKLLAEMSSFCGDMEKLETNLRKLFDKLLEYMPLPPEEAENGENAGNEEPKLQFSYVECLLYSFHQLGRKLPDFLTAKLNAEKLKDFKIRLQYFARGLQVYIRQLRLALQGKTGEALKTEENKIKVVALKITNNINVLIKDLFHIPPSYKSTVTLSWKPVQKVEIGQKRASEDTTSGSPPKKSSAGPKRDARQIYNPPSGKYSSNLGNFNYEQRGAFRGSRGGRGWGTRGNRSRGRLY

[2] = target: FLAG-tagged API5 WT (human) (UniProt Q9BZZ5); experiment: co-IP; FLAG-API5 (WT or 4Mut) and HA-tagged LMW FGF2 WT transiently co-expressed in API5 knockout (gAPI5) HeLa cells; anti-Flag antibody
[3] = target: FLAG-tagged API5 4Mut (D145A/E184A/D185A/E190A) (human) (UniProt Q9BZZ5); experiment: as above
[4] = target: GST-API5, wild type (human) (UniProt Q9BZZ5); experiment: pull-down; GST pulldown with purified recombinant GST-API5 and His-FGF2; Coomassie blue staining; both purified
[5] = target: FLAG-tagged API5 WT (human) (UniProt Q9BZZ5); experiment: co-IP; API5 knockout (gAPI5) HeLa cells reconstituted with API5 WT or 4Mut; RNase A used during immunoprecipitation
[6] = target: FLAG-tagged API5 4Mut (D145A/E184A/D185A/E190A) (human) (UniProt Q9BZZ5); experiment: as above

| binding [5] | binding [6] | Substance | further results |
| --- | --- | --- | --- |
| – | – | FGF2 in cells (immunoprecipitation of Supplementary Figure S9) (from UniProt P09038) | binding [1]: binds |
| – | – | HA-tagged LMW FGF2 WT (from UniProt P09038 135-288) | binding [2]: binds; binding [3]: binds |
| – | – | His-FGF2, LMW FGF2 (residues 135-288, C211S/C229S) (from UniProt P09038 135-288) | binding [4]: binds |
| binds | binds | UAP56 (DDX39B), endogenous (from UniProt Q13838 1-428) | – |
| binds | no binding | eIF4E (from UniProt P06730 1-217) | – |
